# Out of some 320,000 compounds screened, about 22,000 (6.9%) were called active. Inconclusive results, whose numbers are uncertain, are shown with a selection of clear calls. Calls follow the shape of the dose curve; as a rule, active = well fitted inhibition curve with a large enough effect; inconclusive = small, poorly fitted or top-dose-only effect, or another doubt; inactive = no such curve, though single readings can be large or run the other way. Potencies beside an inconclusive call are fits to weak or partial responses and may not hold up.
# Assay: Primary qHTS for delayed death inhibitors of the malarial parasite plastid, 96 hour incubation
# Conditions: P. falciparum luciferase reporter growth; series mostly up to 28.7 µM
# Method in brief: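 Compounds incubated with erythrocytes infected by luciferase-expressing P. falciparum (2% hematocrit, 0.05% parasitemia final) for 96 hours, 37 C in 5% CO2. Growth inhibition scored as decreased luciferase luminescence.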
# Potency is read from the fitted curve at half-maximal effect.
row,SMILES,Potency
1,Cn1c(-c2ccc(C=O)s2)nc2c3ccccc3c3ccccc3c21,inactive
2,CC1=C[C@@H]2c3cccc4[nH]cc(c34)C[C@H]2N(C)C1,"inconclusive: 4.15 µM [inhibitor, partial curve]"
3,CC(C)c1ccc(NC(=O)N(CCc2nc3ccccc3[nH]2)C2CCCC2)cc1,"inconclusive: 10.4 µM [inhibitor, partial curve, poor fit]"
4,COc1ccc(-n2c(SC3CCOC3=O)nc3ccccc32)cc1 (centres undefined),"inconclusive: 18.5 µM [inhibitor, single point]"
5,CN(Cc1ccccc1)c1ncnc2c1cnn2-c1ccccc1,"inconclusive: 5.22 µM [inhibitor, partial curve]"
6,CCCSc1nc(NCc2ccco2)c2c3c(sc2n1)COC(C)(CC)C3 (centres undefined),"inconclusive: 4.65 µM [inhibitor, partial curve, poor fit]"
7,O=C(c1cccc2nccnc12)N1CCCC(Nc2ccc(F)c(F)c2)C1 (centres undefined),inactive
8,Cc1ccc(NC(=O)c2sc3nc[nH]c(=O)c3c2C)c(C)c1,"inconclusive: 0.657 µM [inhibitor, full curve, poor fit]"
9,CC1CC(=O)N(c2ccc(Br)cc2)C(=O)C1,inactive
10,Cc1nn(-c2ccccc2)c2c1C(c1ccc([N+](=O)[O-])cc1)C(C#N)=C(N)O2 (centres undefined),inactive
11,CCOc1ccc(NC(=O)CN2C(=O)COc3ccc(S(=O)(=O)N4CCCCC4)cc32)cc1,inactive
12,O=C(CSCc1ccc(F)cc1)Nc1ccc(N2CCOCC2)cc1N1CCOCC1,active: 13.1 µM
13,Cc1ccc(C2C(C(=O)c3cc4ccccc4o3)=C(O)C(=O)N2CCN2CCOCC2)cc1 (centres undefined),"inconclusive: 18.5 µM [inhibitor, single point]"
14,O=C(Nc1cccc(-c2cn3cccnc3n2)c1)c1cccs1,"inconclusive: 13.1 µM [inhibitor, single point]"
15,C/C=C/c1ccc(OCC(O)CN2CCCCCCC2)c(OC)c1 (centres undefined),"inconclusive: 11.7 µM [inhibitor, single point]"
16,O=c1c2c(nc3cc(-c4cccc(Cl)c4)[nH]n13)CCC2,"inconclusive: 2.33 µM [inhibitor, partial curve, poor fit]"
17,CC1CCCCC1NC(=O)CSCC(=O)O (centres undefined),"inconclusive: 13.1 µM [inhibitor, single point]"
18,COCCn1c(SCC(=O)c2ccc(CNC(C)=O)o2)nc2ccccc2c1=O,"inconclusive: 0.262 µM [inhibitor, partial curve, poor fit]"
19,COc1ccc(Br)cc1CN(C)CC(=O)NCCc1ccc(S(N)(=O)=O)cc1,inactive

# An excerpt from above in order of heavy-atom count, largest number first:
row,SMILES,Potency
18,COCCn1c(SCC(=O)c2ccc(CNC(C)=O)o2)nc2ccccc2c1=O,"inconclusive: 0.262 µM [inhibitor, partial curve, poor fit]"
19,COc1ccc(Br)cc1CN(C)CC(=O)NCCc1ccc(S(N)(=O)=O)cc1,inactive
9,CC1CC(=O)N(c2ccc(Br)cc2)C(=O)C1,inactive
